PubChem BioAssay AID624296 (National Center for Advancing Translational Sciences (NCATS), 2012)
About 9,900 (2.8%) of roughly 350,000 compounds were called active. Listed are the inconclusive results; actives and inactives stand elsewhere. The call rests on the fitted dose curve; in most records, active means well fitted activation curve with a large enough effect; inconclusive means small, poorly fitted or top-dose-only effect; inactive means no such curve, though single readings can be large or run the other way.

assay: A quantitative high throughput screen for small molecules that induce DNA re-replication in MCF 10a normal breast cells.; further: nearly all actives have a fitted effect of over 50% in size; details: MCF 10A DNA re-replication, Hoechst nuclear intensity, 48 h
Potency means the concentration at half of the fitted maximal effect.

Structure (SMILES)	Potency
CCN1CCC(Nc2cccc(F)c2)CC1	inconclusive: 29.1 µM
CCc1cc(C(=O)NCC2(N3CCCCC3)CCCCC2)sc1C	inconclusive: 20.6 µM
CC(C)c1ccc(C(=O)NCC2(N3CCOCC3)CCCCC2)cc1	inconclusive: 3.66 µM
O=C(NCC1(N2CCCCC2)CCCCC1)c1cncc(Br)c1	inconclusive: 25.9 µM
COc1ccc(C(=O)NCC2(N3CCCCC3)CCCCC2)cc1	inconclusive: 20.6 µM
Cc1cc(C)cc(N(C(=O)c2ccccc2)C2CCN(C(=O)OC(C)(C)C)CC2)c1	inconclusive: 29.1 µM
COc1ccc(NC2CCN(CCc3ccccc3)CC2)c(OC)c1	inconclusive: 0.0206 µM
